Assay [1] has as its target mutant ataxin-1 (AT1-82Q) (human) (UniProt P54253). Nature of the assay: GST pull-down from HeLa cell lysate, blot with CAG53b.
The target of assay [2] is mutant huntingtin (Htt111Q) (human) (UniProt P42858). Described as above.
Assay [3] deals with mutant ataxin-1 (AT1-82Q) (human) (UniProt P54253). Nature of the assay: co-immunoprecipitation from HeLa cell lysate with anti-HMGB or anti-EGFP antibody, blot with CAG53b.
In assay [4] the target is mutant huntingtin (Htt111Q) (human) (UniProt P42858). The description is as above.

Amino acid sequences for entries named in this document (tags omitted). A change or cut given only in a name is not applied to a line headed by its entry. Chains listed by the source or under a name are the forms on record and can include a tag or linker.
mutant ataxin-1 (AT1-82Q) (P54253, form named): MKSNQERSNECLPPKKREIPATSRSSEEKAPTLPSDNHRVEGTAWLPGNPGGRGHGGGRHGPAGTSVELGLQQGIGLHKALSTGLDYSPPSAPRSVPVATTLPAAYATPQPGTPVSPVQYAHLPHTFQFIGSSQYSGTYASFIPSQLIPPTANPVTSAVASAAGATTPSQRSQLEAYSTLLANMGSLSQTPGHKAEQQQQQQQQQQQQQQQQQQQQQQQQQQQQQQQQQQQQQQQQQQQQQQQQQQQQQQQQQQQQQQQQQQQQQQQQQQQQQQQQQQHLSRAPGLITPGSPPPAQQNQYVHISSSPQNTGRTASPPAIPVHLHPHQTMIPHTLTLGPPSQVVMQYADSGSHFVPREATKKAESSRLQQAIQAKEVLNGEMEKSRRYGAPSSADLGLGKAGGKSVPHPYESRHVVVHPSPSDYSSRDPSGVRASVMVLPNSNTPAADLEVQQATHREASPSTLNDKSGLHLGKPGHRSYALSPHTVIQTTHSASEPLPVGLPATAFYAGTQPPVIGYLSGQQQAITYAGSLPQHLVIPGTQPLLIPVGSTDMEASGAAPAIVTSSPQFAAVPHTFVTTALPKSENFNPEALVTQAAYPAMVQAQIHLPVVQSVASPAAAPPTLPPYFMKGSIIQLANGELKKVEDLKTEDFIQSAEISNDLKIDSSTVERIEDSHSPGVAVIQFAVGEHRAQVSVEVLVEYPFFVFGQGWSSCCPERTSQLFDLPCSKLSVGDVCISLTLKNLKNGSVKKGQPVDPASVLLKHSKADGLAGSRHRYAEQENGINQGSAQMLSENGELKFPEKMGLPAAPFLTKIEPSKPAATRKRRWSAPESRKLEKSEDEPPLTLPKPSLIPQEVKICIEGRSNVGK
mutant huntingtin (Htt111Q) (P42858, form named): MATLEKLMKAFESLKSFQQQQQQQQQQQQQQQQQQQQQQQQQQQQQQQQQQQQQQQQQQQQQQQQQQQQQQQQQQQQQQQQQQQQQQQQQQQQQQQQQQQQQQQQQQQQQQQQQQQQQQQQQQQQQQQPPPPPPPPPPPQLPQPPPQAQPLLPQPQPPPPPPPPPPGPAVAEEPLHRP
UniProt P63158: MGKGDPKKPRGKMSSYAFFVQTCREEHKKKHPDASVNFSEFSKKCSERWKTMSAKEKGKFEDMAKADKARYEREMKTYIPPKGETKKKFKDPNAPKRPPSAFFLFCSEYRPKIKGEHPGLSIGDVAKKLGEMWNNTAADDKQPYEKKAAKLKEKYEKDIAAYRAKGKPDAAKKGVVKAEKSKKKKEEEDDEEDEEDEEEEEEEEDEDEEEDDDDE

No constants are given. Whether binding was seen depends on the method and setting. In cells and extracts the contact can be indirect. Some results given as binding are weak or reduced against the parent protein; the word gives no strength.

For “GST-HMGB1 fusion protein (rat HMGB1 from pGEX-3X-HMGB1) (from UniProt P63158 1-215)”, the binding result in assay [1] and in assay [2] was “binds” in each case.

On to “HMGB1-EGFP protein (rat HMGB1 expressed from pEGFP-N1-HMGB1) (from UniProt P63158 1-215)”, for which the binding entry in assay [3] and in assay [4] was “binds” in each case.

Values taken from patent US20090280488A1.
